Assay [1] addresses HER2 expressed on cells (BT 474, MDA 361) (human) (UniProt P04626). As to the kind of experiment: FACS, BT 474 and MDA 361 cells, 0, 0.5 or 5 µM 1.1.FI-Zb, streptavidin-PE. For orientation: A flow cytometer gives signals particle by particle.
The target is the same in assay [2]. Description: FACS on MDA 361, BT 474 and BaF3 cells (FIG. 13).
The target in assay [3] is T1, HER2 extracellular domain (HER2-ECD) (human, UniProt P04626 23-652).
T1 construct: extracellular domain; also called immobilized HER2; extracellular domain of Erb2
As to the kind of experiment: competition ELISA, block of 1.1.FI-Zb binding to immobilized HER2-ECD. On the technique in general: ELISA stands for enzyme-linked immunosorbent assay.

No constants are given. Whether binding was seen depends on the method and setting. Some results given as binding are weak or reduced against the parent protein; the word gives no strength. For part of these data: Where a sequence is shown, tags or fusion partners need not be part of it.

Turning to QVYESWGCIGPGCACLQACL (biotinylated using NHS-LC-biotin (sites not given)) [1.1.FI-Zb (biotinylated 1.1.FI-Z)], the binding result in assay [1] and in assay [2] was “binds” throughout. Consider QVYESWGCIGPGCACLQACLGGGSSG (Fc fusion, not shown: a dimerising Fc or GST) [1.1FI-Fc], for which the binding entry in assay [3] is “binds”.
